{
  "sequences": {"note": "Amino acid sequences for entries named in this document (tags omitted). Chains listed by the source or under a name are the forms on record and can include a tag or linker.", "UniProt Q43135, other isoform, or with tags, fused parts or gaps": "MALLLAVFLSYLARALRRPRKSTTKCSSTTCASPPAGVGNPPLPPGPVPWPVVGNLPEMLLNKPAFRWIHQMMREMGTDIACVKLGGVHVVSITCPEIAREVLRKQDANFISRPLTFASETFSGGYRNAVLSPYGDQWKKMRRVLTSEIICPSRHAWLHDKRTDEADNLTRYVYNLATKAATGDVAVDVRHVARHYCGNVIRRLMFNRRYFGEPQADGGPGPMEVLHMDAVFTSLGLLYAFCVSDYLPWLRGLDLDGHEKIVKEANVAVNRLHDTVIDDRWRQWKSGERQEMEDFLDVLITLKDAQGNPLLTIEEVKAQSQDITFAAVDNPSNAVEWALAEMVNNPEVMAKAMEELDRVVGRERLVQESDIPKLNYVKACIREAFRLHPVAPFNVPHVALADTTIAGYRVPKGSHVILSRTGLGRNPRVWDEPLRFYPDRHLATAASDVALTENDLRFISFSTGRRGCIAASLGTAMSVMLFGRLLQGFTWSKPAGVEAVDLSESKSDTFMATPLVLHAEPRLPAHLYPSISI"},
  "source": "patent US5882851A",
  "about": "“Cytochrome P-450 monooxygenases” (Novartis Finance Corporation, priority 1993, dated 1999)",
  "target": "T1, P-450TYR expressed in E. coli (Sorghum bicolor, UniProt Q43135)",
  "T1 construct": "in which the 35 N-terminal amino acids are replaced by the nine N-terminal amino acids from bovine 17α hydroxylase; nine N-terminal amino acids from bovine 17alpha-hydroxylase (replace the 35 N-terminal residues) (N); made in house; host or cells: E. coli JM109, vector pSP19g10L",
  "experiment": "Substrate binding spectra of P-450TYR expressed in E. coli",
  "from_the_text": "Cytochrome P-450TYR in the oxidized state has a strong absorption peak at 420 nm, representing the low spin state of the iron of the heme group. The binding of a ligand to the heme group shifts the absorption maximum by changing the spin state of the iron. Binding of tyrosine at the catalytic site of cytochrome P-450TYR induces a change of the spin state of the oxidized iron from low to high spin, and thereby changes the absorption maximum from 420 nm to 390 nm producing a type I spectrum (Jefcoate, Methods in Enzymology 52:258-279, 1978). The following experimental procedure is used to obtain the substrate binding spectrum: two identical cuvettes containing a buffered solution of the isolated cytochrome P-450 are prepared. The substrate of the enzyme is added to the sample cuvette whereas the same volume of buffer is added to the other cuvette. The difference spectrum is then recorded in an SLM-Aminco DW2c spectrophotometer. The absorption difference, A390-420, is proportional to the concentration of cytochrome P-450TYR with a bound substrate at its active site. […] The saturating concentration of the substrate is determined by titrating the cytochrome P-450 sample with increasing amounts of substrate and monitoring A390-420. […]",
  "note": "At least one structure is not confirmed: it was looked up by name or label, or the drawing left a doubt.",
  "data": [
    {"smiles": "O=[N+]([O-])CCc1ccc(O)cc1", "note": "[2-nitro-(p-hydroxyphenyl)ethane]", "values": [
      {"measurement": "type of substrate binding spectrum", "result": "type Ispectrum"}
    ]}
  ]
}
